Earlier results in patent US20230172920A1, “DOSING REGIMEN FOR TREATING A DISEASE MODULATED BY CSF-1R” (Novartis AG, priority 2020, published 2023).

By UniProt entry, the sequences of proteins in these tests, tags left out.
UniProt Q9UNQ0, whole entry, species assumed: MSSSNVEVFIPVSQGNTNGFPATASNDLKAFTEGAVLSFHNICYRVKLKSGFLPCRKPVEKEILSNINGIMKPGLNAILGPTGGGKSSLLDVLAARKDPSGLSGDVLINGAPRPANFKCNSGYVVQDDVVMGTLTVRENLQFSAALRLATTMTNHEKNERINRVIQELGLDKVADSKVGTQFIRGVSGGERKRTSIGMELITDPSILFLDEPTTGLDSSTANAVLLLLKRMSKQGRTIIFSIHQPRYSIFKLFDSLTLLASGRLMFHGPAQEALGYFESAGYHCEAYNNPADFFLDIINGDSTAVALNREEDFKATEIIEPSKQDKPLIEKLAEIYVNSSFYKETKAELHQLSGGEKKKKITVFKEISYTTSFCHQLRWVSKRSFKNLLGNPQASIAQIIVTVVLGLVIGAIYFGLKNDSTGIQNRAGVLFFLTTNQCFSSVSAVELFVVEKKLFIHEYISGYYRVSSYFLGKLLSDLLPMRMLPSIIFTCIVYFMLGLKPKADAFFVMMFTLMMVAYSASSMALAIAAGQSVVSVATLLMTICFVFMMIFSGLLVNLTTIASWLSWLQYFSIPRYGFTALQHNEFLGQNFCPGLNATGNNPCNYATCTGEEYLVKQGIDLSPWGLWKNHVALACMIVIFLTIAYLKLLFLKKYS
UniProt P08183, whole entry: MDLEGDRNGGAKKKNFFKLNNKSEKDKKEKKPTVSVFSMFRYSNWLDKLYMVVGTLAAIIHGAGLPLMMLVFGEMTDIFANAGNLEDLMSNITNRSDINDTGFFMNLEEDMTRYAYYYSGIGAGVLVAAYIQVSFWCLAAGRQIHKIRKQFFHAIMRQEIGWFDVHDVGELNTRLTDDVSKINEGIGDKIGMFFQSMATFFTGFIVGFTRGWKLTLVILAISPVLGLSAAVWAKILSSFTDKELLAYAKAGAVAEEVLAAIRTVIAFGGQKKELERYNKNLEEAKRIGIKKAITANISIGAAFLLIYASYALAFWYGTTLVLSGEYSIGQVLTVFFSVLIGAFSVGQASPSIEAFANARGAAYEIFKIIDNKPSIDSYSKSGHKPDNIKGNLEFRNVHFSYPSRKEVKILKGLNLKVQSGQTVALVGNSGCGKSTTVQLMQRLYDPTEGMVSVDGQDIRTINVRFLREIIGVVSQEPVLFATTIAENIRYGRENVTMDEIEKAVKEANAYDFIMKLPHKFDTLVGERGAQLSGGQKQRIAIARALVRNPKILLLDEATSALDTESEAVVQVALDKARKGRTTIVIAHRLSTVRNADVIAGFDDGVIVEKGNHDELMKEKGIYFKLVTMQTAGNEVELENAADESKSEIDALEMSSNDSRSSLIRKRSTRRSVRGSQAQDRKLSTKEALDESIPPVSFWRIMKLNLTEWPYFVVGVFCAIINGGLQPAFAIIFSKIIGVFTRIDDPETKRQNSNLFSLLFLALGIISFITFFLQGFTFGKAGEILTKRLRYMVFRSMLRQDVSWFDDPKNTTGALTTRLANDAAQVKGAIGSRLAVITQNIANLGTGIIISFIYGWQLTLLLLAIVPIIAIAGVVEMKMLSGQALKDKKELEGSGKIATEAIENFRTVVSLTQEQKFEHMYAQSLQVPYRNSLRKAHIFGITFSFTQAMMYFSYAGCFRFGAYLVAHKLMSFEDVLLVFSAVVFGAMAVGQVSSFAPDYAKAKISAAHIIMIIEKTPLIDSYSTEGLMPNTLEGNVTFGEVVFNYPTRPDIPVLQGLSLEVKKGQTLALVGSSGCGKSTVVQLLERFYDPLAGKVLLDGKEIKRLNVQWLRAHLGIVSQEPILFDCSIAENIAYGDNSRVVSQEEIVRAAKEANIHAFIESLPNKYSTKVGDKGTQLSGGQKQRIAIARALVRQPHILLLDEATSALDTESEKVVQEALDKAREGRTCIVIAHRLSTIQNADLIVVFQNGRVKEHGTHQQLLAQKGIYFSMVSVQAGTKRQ

Assays:
[1] = target: breast cancer resistance protein (BCRP) (Homo sapiens, UniProt Q9UNQ0); details: Milane et al 2009; cited from earlier work
P-glycoprotein (P-gp) = P-glycoprotein (P-gp) (Homo sapiens, UniProt P08183); details: Milane et al 2009; cited from earlier work

Nc1nc2ccc(OC(F)(F)F)cc2s1 [riluzole]
transporter substrate [1]: substrate | transporter substrate (P-glycoprotein (P-gp)): substrate
